From PubChem BioAssay AID1479148 (National Center for Advancing Translational Sciences (NCATS), 2020)
Inconclusive results, whose numbers are uncertain, are shown with a selection of clear calls. Potencies beside an inconclusive call are fits to weak or partial responses and may not hold up. Calls of active or inactive are those of the source. The call rests on the fitted dose curve.

assay: Confirmatory qHTS for inhibitors of SARS-S pseudo-typed particle cell entry; conditions: SARS-S pseudotyped particle cell entry, reporter luminescence; series mostly up to 57.1 µM

Compound	Potency
C=CC(=O)Nc1cc(Nc2nccc(-c3cn(C)c4ccccc34)n2)c(OC)cc1N(C)CCN(C)C	active: 1.52 µM
CCCN1C[C@H](C)[C@@H](O)[C@](C)(O)[C@@H](CC)OC(=O)[C@H](C)[C@@H](O[C@H]2C[C@@](C)(OC)[C@@H](O)[C@H](C)O2)C(C)[C@@H](O[C@@H]2O[C@H](C)C[C@H](N(C)C)[C@H]2O)[C@](C)(O)C[C@H]1C (some centres undefined)	inconclusive: 8.57 µM [inhibitor, partial curve, poor fit]
CO[C@@]12[C@H](COC(N)=O)C3=C(C(=O)C(C)=C(N)C3=O)N1C[C@@H]1N[C@@H]12	active: 6.07 µM
CC(=O)N1CCN(c2ccc(OC[C@H]3CO[C@](Cn4ccnc4)(c4ccc(Cl)cc4Cl)O3)cc2)CC1	inconclusive: 17.1 µM [inhibitor, partial curve, poor fit]
N/C(=N\N=C\c1ccc(Cl)cc1)N/N=C/c1ccc(Cl)cc1	inactive
CC(CN(C)C)CN1c2ccccc2CCc2ccccc21 (centres undefined)	inconclusive: 0.136 µM [inhibitor, full curve, poor fit]
COc1cccc2c1C(=O)c1c(O)c3c(c(O)c1C2=O)C[C@@](O)(C(C)=O)C[C@@H]3O[C@H]1C[C@H](N)[C@H](O)[C@H](C)O1	active: 2.15 µM
CN1CCC[C@@H]1CCO[C@](C)(c1ccccc1)c1ccc(Cl)cc1	inconclusive: 9.61 µM [inhibitor, partial curve, poor fit]
N=C(N)c1ccc(OCCCCCOc2ccc(C(=N)N)cc2)cc1	inconclusive: 1.21 µM [inhibitor, full curve, poor fit]
COc1ccc2cc3[n+](cc2c1OC)CCc1cc2c(cc1-3)OCO2	inconclusive: 4.82 µM [inhibitor, full curve, poor fit]
CC(C)C(=O)Oc1ccc(CO)cc1[C@H](CCN(C(C)C)C(C)C)c1ccccc1	inconclusive: 19.2 µM [inhibitor, partial curve, poor fit]
Cc1nn(C)c2c1C(c1ccccc1F)=NCC(=O)N2C	inconclusive: 24.1 µM [inhibitor, partial curve, poor fit]
Cc1ccc(NC(=O)c2ccc(CN3CCN(C)CC3)cc2)cc1Nc1nccc(-c2cccnc2)n1	active: 30.4 µM
CNCCCC12CCC(c3ccccc31)c1ccccc12	inconclusive: 17.1 µM [inhibitor, partial curve, poor fit]
CN(C/C=C/c1ccccc1)Cc1cccc2ccccc12	inconclusive: 8.57 µM [inhibitor, full curve]
CCCCCCOC(=O)NC(=N)c1ccc(NCc2nc3cc(C(=O)N(CCC(=O)OCC)c4ccccn4)ccc3n2C)cc1	inactive
CCCCN=C(N)N=C(N)N	inconclusive: 3.83 µM [inhibitor, full curve, poor fit]
Cc1oncc1C(=O)Nc1ccc(C(F)(F)F)cc1	inactive
COc1cc(N)c(Cl)cc1C(=O)NC1CCN(CCCOc2ccc(F)cc2)CC1OC (centres undefined)	inactive
CC(C)(C)c1ccc(C(=O)CCCN2CCC(OC(c3ccccc3)c3ccccc3)CC2)cc1	inconclusive: 42.9 µM [inhibitor, single point]
COc1cccc2c1C(=O)c1c(O)c3c(c(O)c1C2=O)C[C@@](O)(C(=O)CO)C[C@@H]3O[C@H]1C[C@H](N)[C@@H](O)[C@H](C)O1	inconclusive: 1.71 µM [inhibitor, full curve, poor fit]
CC[C@H](C)C(=O)O[C@H]1C[C@@H](C)C=C2C=C[C@H](C)[C@H](CC[C@@H]3C[C@@H](O)CC(=O)O3)[C@H]21	inconclusive: 2.15 µM [inhibitor, full curve, poor fit]
CCOc1cc2ncc(C#N)c(Nc3ccc(OCc4ccccn4)c(Cl)c3)c2cc1NC(=O)/C=C/CN(C)C	inconclusive: 2.78 µM [inhibitor, full curve, poor fit]
O=c1ccc2ccccc2o1	inactive
CN1CCC(=C2c3ccccc3C=Cc3ccccc32)CC1	active: 27.1 µM
Cc1cn([C@H]2C[C@H](N=[N+]=[N-])[C@@H](CO)O2)c(=O)[nH]c1=O	active: 0.271 µM
C=CC1(C)CC(=O)C2(O)C(C)(O1)C(OC(C)=O)C(OC(=O)CCN(C)C)C1C(C)(C)CCC(O)C12C (centres undefined)	inconclusive: 2.71 µM [inhibitor, full curve, poor fit]
O=C(Nc1ccc(Cl)cc1)Nc1ccc(Cl)c(C(F)(F)F)c1	inconclusive: 9.61 µM [inhibitor, full curve, poor fit]
CCSc1ccc2c(c1)N(CCCN1CCN(C)CC1)c1ccccc1S2	inconclusive: 5.41 µM [inhibitor, full curve, poor fit]

For reference, some entries already given:
Compound	Potency
CC(C)C(=O)Oc1ccc(CO)cc1[C@H](CCN(C(C)C)C(C)C)c1ccccc1	inconclusive: 19.2 µM [inhibitor, partial curve, poor fit]
Cc1nn(C)c2c1C(c1ccccc1F)=NCC(=O)N2C	inconclusive: 24.1 µM [inhibitor, partial curve, poor fit]
Cc1ccc(NC(=O)c2ccc(CN3CCN(C)CC3)cc2)cc1Nc1nccc(-c2cccnc2)n1	active: 30.4 µM
CNCCCC12CCC(c3ccccc31)c1ccccc12	inconclusive: 17.1 µM [inhibitor, partial curve, poor fit]
CN(C/C=C/c1ccccc1)Cc1cccc2ccccc12	inconclusive: 8.57 µM [inhibitor, full curve]
CCCCCCOC(=O)NC(=N)c1ccc(NCc2nc3cc(C(=O)N(CCC(=O)OCC)c4ccccn4)ccc3n2C)cc1	inactive
CCCCN=C(N)N=C(N)N	inconclusive: 3.83 µM [inhibitor, full curve, poor fit]
Cc1oncc1C(=O)Nc1ccc(C(F)(F)F)cc1	inactive
